Among the data in article PMC4017264, “Molecular Basis and Regulation of OTULIN-LUBAC Interaction” (Molecular Cell, 2014) are binding values, retold here.

By UniProt entry, the sequences of proteins in these tests, tags left out. Where a name states a change or a piece, a line headed by the entry shows the natural chain unless it says otherwise.
UniProt Q96BN8: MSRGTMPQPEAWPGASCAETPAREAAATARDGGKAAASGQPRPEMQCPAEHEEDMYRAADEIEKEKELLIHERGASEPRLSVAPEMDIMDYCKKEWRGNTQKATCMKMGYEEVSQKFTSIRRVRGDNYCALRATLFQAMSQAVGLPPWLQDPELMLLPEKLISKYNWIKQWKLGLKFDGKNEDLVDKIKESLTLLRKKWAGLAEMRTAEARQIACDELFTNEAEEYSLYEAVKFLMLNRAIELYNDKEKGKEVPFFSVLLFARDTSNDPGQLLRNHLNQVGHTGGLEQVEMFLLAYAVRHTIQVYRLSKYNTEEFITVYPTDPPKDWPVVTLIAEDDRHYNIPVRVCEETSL
UniProt Q96EP0: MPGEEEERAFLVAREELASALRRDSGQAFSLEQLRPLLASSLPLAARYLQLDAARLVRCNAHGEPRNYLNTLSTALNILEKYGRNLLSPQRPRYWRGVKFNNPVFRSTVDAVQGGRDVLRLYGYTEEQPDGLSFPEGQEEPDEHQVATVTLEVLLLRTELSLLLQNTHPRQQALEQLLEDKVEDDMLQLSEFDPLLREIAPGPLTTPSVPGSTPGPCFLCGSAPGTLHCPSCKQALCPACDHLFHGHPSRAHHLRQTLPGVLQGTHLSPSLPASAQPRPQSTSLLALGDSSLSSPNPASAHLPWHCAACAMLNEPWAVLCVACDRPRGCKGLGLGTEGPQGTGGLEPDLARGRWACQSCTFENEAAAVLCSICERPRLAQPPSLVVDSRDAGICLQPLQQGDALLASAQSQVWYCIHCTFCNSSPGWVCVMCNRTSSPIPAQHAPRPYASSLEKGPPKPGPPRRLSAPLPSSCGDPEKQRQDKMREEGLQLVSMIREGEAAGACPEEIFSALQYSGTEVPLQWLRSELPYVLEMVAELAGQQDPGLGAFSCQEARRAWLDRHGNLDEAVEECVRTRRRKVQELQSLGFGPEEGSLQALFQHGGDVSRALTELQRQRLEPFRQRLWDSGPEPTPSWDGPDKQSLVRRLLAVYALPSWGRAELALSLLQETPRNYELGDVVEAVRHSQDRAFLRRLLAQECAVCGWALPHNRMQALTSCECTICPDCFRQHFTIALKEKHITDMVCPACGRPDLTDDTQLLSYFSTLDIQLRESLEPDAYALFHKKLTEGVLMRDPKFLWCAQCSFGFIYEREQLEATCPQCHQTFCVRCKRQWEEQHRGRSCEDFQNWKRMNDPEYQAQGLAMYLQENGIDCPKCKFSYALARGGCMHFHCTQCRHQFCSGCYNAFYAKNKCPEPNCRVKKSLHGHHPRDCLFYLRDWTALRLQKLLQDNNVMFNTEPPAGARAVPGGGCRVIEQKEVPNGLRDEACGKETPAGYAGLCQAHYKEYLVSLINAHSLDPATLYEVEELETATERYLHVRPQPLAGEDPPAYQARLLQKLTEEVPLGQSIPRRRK

No constants are given. Whether binding was seen depends on the method and setting. Some binding calls cover weakened binding; strength is not graded here.

The target of assay [1] is FITC-Ahx-labeled OTULIN PIM peptide (aa 49–67) (UniProt Q96BN8). Nature of the assay: fluorescence polarisation; serially diluted PUB domains and HOIP variants mixed with an equal volume of 100 nM FITC-Ahx-labeled peptide; one-site binding model; triplicate; both purified. In general terms: Polarisation of emitted light reports the rotation of a fluorescent probe.
Assay [2] concerns the target fluorescently labeled OTULIN PIM peptide (aa 49–67) M55L (UniProt Q96BN8). Described as above.
Assay [3] deals with endogenous HOIP (human (endogenous in HEK293T, HEK293ET, U2OS, RPE1)) (UniProt Q96EP0). Nature of the assay: SEC; gel filtration of HEK293ET cell lysates (phosphatases inhibited); fractions probed with antibodies. On the technique in general: In gel filtration, larger molecules generally elute earlier.
For assay [4] the target is unchanged. The experiment in a line: SEC; gel filtration of U2OS and RPE1 cell lysates (Figure S8).

B1: PNGase PUB domain (aa 11–109) (domain or fragment, UniProt Q96IV0 11-109)
chain: GSASPAVAELCQNTPETFLEASKLLLTYADNILRNPNDEKYRSIRIGNTAFSTRLLPVRGAVECLFEMGFEEGETHLIFPKKASVEQLQKIRDLIAIER
Turning to B1, the binding result in assay [1] and in assay [2] was “no binding” in each case.

B2: endogenous SHARPIN (protein, UniProt Q9H0F6 1-387)
chain: MAPPAGGAAAAASDLGSAAVLLAVHAAVRPLGAGPDAEAQLRRLQLSADPERPGRFRLELLGAGPGAVNLEWPLESVSYTIRGPTQHELQPPPGGPGTLSLHFLNPQEAQRWAVLVRGATVEGQNGSKSNSPPALGPEACPVSLPSPPEASTLKGPPPEADLPRSPGNLTEREELAGSLARAIAGGDEKGAAQVAAVLAQHRVALSVQLQEACFPPGPIRLQVTLEDAASAASAASSAHVALQVHPHCTVAALQEQVFSELGFPPAVQRWVIGRCLCVPERSLASYGVRQDGDPAFLYLLSAPREAPATGPSPQHPQKMDGELGRLFPPSLGLPPGPQPAASSLPSPLQPSWSCPSCTFINAPDRPGCEMCSTQRPCTWDPLAAAST
Take B2: the binding entry in assay [3] and in assay [4] was “binds” in each case.

B3: UBXD1 PUB domain (aa 150–264) (domain or fragment, UniProt Q9BZV1 150-264)
chain: STDPVAASIMKIYTFNKDQDRVKLGVDTIAKYLDNIHLHPEEEKYRKIKLQNKVFQERINCLEGTHEFFEAIGFQKVLLPAQDQEDPEEFYVLSETTLAQPQSLERHKEQLLAAE
On to B3, for which the binding result in assay [1] is given as “no binding”.
